Data source: PubChem BioAssay AID1259295 (Sanger Institute, 2017)

- Screen: 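Retest kinome hits one siRNA at a time for drug synthetic lethality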 (secondary deconvolution screen, four single siRNAs per gene)
- Cells: human COLO678 colorectal cancer cells
- Reagents: single siRNA against human genes
- Treatment: anchor drug BYL719 at 1 µM, cetuximab at 5 µg/ml or trametinib at 10 nM, or DMSO vehicle alone
- Measured: 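Viability under vehicle relative to control pool 2 (non-targeting), and knockdown synergy with BYL719 1 µM, cetuximab 5 µg/ml or trametinib 10 nM, as replicate means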
- Direction: synergy score with BYL719: higher = stronger combined killing with BYL719; synergy score with cetuximab: higher = stronger combined killing with cetuximab; synergy score with trametinib: higher = stronger combined killing with trametinib; viability, vehicle only: higher = more cells survive
- Rule for the call: 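Hit: synergy score over 0.10 with BYL719, cetuximab or trametinib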
The whole screen tested 160 reagents; this is a random part of them. Over the whole deposit, 40 (25%) are marked active. 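How the synergy score is calculated is not defined; single-siRNA calls need support from other siRNAs and cell lines.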 Unmarked entries are inactive. The numbers tell different reagents against one gene apart. Viability is capped at 1. Not given: the amount of reagent, the time to read-out.

target gene	siRNA no.	synergy score with BYL719	synergy score with cetuximab	synergy score with trametinib	viability, vehicle only (fraction of control)
GUCY2D (GeneID 3000)	1	-0.124	-0.114	0.0112	0.96
GUCY2D (GeneID 3000)	2	-0.0841	-0.0594	0.0516	0.885
GUCY2D (GeneID 3000)	3	-0.0752	-0.0678	-0.0733	0.883
GUCY2D (GeneID 3000)	4	-0.0877	-0.119	-0.0113	1
AK2 (GeneID 204)	1	-0.0452	-0.0156	-0.0731	0.934
AK2 (GeneID 204)	2	-0.0473	-0.15	-0.0501	0.885
AK2 (GeneID 204)	3	-0.0525	-0.119	-0.0654	1
AK2 (GeneID 204)	4	-0.0047	-0.012	0.0847	0.867
HUNK (GeneID 30811)	1	-0.0492	0.0169	0.0283	0.733
HUNK (GeneID 30811)	2	-0.0844	-0.0265	0.0203	0.716
HUNK (GeneID 30811)	3	-0.186	-0.179	-0.0485	0.662
HUNK (GeneID 30811)	4	-0.0257	0.00978	0.084	0.885
NLK (GeneID 51701)	1	0.00831 (active)	0.0239	0.101	0.967
NLK (GeneID 51701)	2	-0.0356 (active)	0.12	0.153	0.924
NLK (GeneID 51701)	3	-0.1	0.0335	0.0734	0.921
NLK (GeneID 51701)	4	-0.0982 (active)	0.0104	0.123	0.989
